The record followed here is US20200121652A1, “COMPOUNDS HAVING CASPASE INHIBITORY ACTIVITY, PHARMACEUTICAL AGENT CONTAINING SAID COMPOUNDS AND FOR TREATING OR PREVENTING CORNEAL ENDOTHELIAL SYMPTOMS, DISORDERS, OR DISEASES, AND APPLICATION OF SAID PHARMACEUTICAL AGENT” (The Doshisha, priority 2017, published 2020).

Each structure is given as a SMILES string. Some results are limits rather than exact numbers.

The assay concerns immortalized Fuchs' endothelial corneal dystrophy cells. The assay is described as follows: Concentration-dependent caspase 3/7 activity under TGF-β2 stimulation (Example 3). Format: cell-based. The following applies: Homo sapiens; TGF-β2 10 ng/mL, 28 hours; agent 10 μM. As to the method: 7×10^3 immortalized Fuchs' endothelial corneal dystrophy cells were seeded on a 96-well plate and were cultured for 24 hours under the condition of 5% CO2 at 37° C.
After 28 hours under the condition of 5% CO2 at 37° C., cell morphology was observed using a phase difference microscope. Caspase 3/7 activity was then measured using Caspase-Glo 3/7 Assay (Promega, #G8091). DMEM+2% FBS+1% P/S was used as the medium. Caspase 3/7 activity and cell viability in this example were measured using GloMax-Multi Detection System (Promega, E7051).
Caspase 3/7 activity below 80% was used as a indicator indicating whether an agent can be used for treating or preventing a corneal endothelial condition, disorder, or disease, or whether an agent can be used as a caspase inhibitor (the underlines in FIG. 4A-1, FIG. 4A-2 and FIG. 4A-3, and FIG. 4B-1, FIG. 4B-2 and FIG. 4B-3).

Regarding `Clc1ccc(CO/N=C(\Cn2ccnc2)c2ccc(Cl)cc2Cl)c(Cl)c1` [Oxiconazole Nitrate], the activity at 10 µM was ≤ 80%.
